Reference: article PMC11861601
Results are given in words; binding and its absence hold for the method and conditions named. Some results given as binding are weak or reduced against the parent protein; the word gives no strength.

By UniProt entry, the sequences of proteins in these tests, tags left out. Where a name states a change or a piece, a line headed by the entry shows the natural chain unless it says otherwise. Residues count along the entry.
UniProt P01106, residues 16-454: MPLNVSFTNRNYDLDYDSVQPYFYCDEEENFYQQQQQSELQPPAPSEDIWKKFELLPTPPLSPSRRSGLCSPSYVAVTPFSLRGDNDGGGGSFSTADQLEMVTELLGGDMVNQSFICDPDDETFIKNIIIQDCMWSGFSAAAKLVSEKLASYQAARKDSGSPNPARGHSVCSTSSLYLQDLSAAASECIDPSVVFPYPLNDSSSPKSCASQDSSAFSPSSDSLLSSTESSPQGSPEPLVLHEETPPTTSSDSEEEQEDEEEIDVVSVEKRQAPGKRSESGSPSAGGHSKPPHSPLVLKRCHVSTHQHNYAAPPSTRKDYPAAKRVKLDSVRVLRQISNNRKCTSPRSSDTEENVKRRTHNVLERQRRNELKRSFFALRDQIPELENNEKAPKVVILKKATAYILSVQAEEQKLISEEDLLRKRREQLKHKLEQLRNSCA
UniProt P61244: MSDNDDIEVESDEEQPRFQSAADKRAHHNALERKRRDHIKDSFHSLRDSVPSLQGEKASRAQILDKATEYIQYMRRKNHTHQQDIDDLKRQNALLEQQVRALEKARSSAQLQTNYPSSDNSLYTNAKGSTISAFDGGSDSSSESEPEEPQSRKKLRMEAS
UniProt P0A9M0: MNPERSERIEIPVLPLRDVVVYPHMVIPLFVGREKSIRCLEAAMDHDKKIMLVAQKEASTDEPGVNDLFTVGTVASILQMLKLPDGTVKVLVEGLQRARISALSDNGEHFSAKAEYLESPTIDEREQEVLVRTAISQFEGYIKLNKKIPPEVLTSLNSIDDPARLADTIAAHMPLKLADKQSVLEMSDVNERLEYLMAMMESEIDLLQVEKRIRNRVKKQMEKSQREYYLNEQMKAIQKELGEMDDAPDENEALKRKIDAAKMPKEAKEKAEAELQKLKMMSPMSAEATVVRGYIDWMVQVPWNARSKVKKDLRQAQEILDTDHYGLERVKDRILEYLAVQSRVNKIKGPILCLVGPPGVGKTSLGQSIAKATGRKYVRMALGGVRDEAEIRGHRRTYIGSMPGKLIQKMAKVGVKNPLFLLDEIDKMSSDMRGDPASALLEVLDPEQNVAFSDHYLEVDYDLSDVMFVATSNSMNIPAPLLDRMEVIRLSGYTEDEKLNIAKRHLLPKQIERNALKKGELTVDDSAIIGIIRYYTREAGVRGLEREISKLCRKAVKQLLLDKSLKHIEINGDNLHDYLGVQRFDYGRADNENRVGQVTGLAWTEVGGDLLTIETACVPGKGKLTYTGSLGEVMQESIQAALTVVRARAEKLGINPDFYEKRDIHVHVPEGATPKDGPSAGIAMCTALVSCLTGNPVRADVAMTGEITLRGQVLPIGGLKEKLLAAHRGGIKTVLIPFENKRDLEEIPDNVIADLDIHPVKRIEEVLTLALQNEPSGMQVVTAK

What was measured:
[1] = biological target: His-tagged full-length c-MYC (human) (UniProt P01106); assay: SPR; Biacore X100; His-tagged ligand (~0.2 µM) captured on Ni-charged Sensor Chip NTA; Lon protein or domain injected at five dilutions; 25 °C, 30 µL/min; running buffer as printed 0.1 M HEPES, 1.5 M NaCl, 0.03 M EDTA, 0.5% v/v Surfactant P20; reference cell without nickel; 1:1 Langmuir fit; both purified
His-tagged MAX (human) [2] = biological target: His-tagged MAX (human) (UniProt P61244); assay: as above
His-tagged MAX (human) [3] = biological target: His-tagged MAX (human) (UniProt P61244); assay: far-Western, overlay or dot blot; dot blots named only in the discussion; format not told; both purified

| Substance | binding [1] | binding (His-tagged MAX (human) [2]) | binding (His-tagged MAX (human) [3]) |
| --- | --- | --- | --- |
| Lon AAA+ domain peptide (aa 241-584) (from UniProt P0A9M0 241-584) (domain or fragment) | binds | – | – |
| recombinant Escherichia coli Lon protease (aa 1-778) (from UniProt P0A9M0 1-778) (enzyme) | binds | binds | – |
| Lon peptidase domain peptide (aa 581-778) (from UniProt P0A9M0 581-778) (domain or fragment) | binds | – | – |
| Lon N-terminal domain peptide (aa 1-245) (from UniProt P0A9M0 1-245) (domain or fragment) | – | – | binds |
